We go through two molecules from US20030165506A1.

Amino acid sequences for entries named in this document (tags omitted). Residues count along the entry.
UniProt Q02248, residues 2-781: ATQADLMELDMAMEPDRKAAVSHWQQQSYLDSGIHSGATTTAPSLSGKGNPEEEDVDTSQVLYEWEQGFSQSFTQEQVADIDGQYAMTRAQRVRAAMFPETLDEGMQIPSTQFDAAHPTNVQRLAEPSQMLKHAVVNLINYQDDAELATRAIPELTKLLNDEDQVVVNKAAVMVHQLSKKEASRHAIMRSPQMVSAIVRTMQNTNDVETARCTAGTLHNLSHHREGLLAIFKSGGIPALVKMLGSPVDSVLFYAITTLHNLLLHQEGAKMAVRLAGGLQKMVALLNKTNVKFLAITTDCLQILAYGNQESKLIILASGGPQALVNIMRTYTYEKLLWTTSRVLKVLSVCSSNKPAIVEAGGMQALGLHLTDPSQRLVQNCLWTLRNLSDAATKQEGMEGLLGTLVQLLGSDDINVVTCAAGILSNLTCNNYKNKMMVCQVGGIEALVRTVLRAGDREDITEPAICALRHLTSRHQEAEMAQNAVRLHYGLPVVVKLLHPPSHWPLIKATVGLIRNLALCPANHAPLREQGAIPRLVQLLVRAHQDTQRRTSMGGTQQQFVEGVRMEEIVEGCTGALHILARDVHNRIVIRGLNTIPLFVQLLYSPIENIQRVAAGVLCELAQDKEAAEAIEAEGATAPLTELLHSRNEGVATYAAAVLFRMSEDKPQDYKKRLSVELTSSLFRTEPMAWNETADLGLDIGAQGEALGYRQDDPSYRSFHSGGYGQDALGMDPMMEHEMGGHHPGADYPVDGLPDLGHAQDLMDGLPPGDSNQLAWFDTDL
UniProt P35222, residues 2-781: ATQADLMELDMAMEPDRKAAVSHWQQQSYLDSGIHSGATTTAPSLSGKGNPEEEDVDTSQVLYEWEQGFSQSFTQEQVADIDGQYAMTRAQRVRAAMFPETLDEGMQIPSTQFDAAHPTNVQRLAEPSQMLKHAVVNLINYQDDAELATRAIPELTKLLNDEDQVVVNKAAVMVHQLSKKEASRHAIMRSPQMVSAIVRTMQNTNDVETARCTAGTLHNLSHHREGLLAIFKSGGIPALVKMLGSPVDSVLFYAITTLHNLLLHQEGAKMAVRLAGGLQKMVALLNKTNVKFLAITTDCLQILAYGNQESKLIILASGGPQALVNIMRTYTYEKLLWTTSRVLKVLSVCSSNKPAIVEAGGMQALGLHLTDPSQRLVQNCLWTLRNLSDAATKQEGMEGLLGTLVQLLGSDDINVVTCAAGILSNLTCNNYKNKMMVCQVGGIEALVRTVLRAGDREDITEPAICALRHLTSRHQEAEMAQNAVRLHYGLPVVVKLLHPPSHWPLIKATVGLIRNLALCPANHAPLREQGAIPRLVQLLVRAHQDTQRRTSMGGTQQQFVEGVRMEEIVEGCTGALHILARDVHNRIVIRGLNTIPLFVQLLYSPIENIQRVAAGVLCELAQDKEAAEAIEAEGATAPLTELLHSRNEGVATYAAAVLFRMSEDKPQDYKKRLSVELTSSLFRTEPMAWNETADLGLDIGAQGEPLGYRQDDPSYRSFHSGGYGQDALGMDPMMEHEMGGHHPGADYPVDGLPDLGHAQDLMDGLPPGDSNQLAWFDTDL

Results are given in words; binding and its absence hold for the method and conditions named. In cells and extracts the contact can be indirect. Some entries that bind do so weakly or less than the wild type. For some of these results: Tags and fused reporters may be left off the sequences shown.

Experiment [1] concerns the target β-catenin endogenous in mouse testis and heart (mouse) (UniProt Q02248). In words: co-immunoprecipitation from mouse heart and testis lysates, Western blot. A general note: In western blotting, separated proteins are transferred to a membrane and probed.
For experiment [2] the target is unchanged. The experiment in a line: co-immunoprecipitation with serum #952 or anti-β-catenin, Western blot (FIG. 7D).
In experiment [3] the target is β-catenin endogenous in human cell lines (HEK-293, HCT-8/R1) (human) (UniProt P35222). The experiment in a line: co-immunoprecipitation with anti-β-catenin or anti-Myc 9E10, Western blot (FIG. 7C).
Experiment [4] has the same target. The experiment in a line: co-immunoprecipitation from HEK-293 lysates, Western blot.

B1: mouse αT-catenin (protein)
chain: MSAETPITLNMDTQDLQIQTFTVEKLLEPLIIQVTTLVNCPQNPSNRKKGRSKRARVLLASVEEATWNLLDKGEMIAKEATVLKEELAAALQEVRKESKALKVSAERFTDDPCYLPKREAVVQAARALLAAVTRLLVLADMIDVMCLLQHVSSFQRTFESLKNVSNKSDLQRTYQKLGKELESLDYLAFKRQQDLKSPSQRDEIAGARATLKENSPLLHSICSACLEHSDVASLKASKDTVCEEIQNALDVISNASQGIQNAPAPPEPQAATLGSAFDELENLIVLNPLTVTEEDVRPSLEKRLEAIISGAALLADSSCTRDLHRERIIAECNAIRQALQDLLTEYMSNTGKTERSNTLNTAIVNMSKKTRDLRRQLRKAIIDHISDSFLDTTVPLLVLIEAAKNGRVKEIKDYAAIFHEHTGRLVEVANLACSMSTNEDGIKIVRIAANHLETLCPQIINAALALASRPKSQVVKNTMEMYKRTWEHYIHVLTEAVDDITSIDDFLAVSESHILEDVNKCIIALRDQDADNLDRAAGAIRGRAARVAHIVAGEMDSYEPGAYTEGVMRNVNFLTSTVIPEFVTQVNVALDALSKNSLTALDDNQFVDISKKIYDTIHDIRCSVMMIRTPEELEDVSDLEDDHEVRSHTSIQTEGKTDRAKMTQLPEAEKEKIAEQVADFKKVKSKLDAEIEIWDDTSNDIIVLAKKMCMIMMEMTDFTRGKGPLKHTTDVIYAAKMISESGSRMDVLARQIANQCPDPPCKQDLLAYLEQIKFYSHQLKICSQVKAEIQNLGGELIVSALDSVTSLIQAAKNLMNAVVQTVKMSYIASTKIIRIQSSAGPRHPVVMWRMKAPAKKPLIKREKPEETWAAARRGSAKKKIHPVQVMSEFRGRQVY
For the molecule B1, the binding result in experiment [1] and in experiment [2] was “binds” in each case.

B2: Myc-tagged human αT-catenin encoded by plasmid pEF6MH-ATCTN(1-2860), expressed in HEK-293 cells (protein, not shown: small tags and cut ends)
chain: MSAETPITLNIDPQDLQVQTFTVEKLLEPLIIQVTTLVNCPQNPSSRKKGRSKRASVLLASVEEATWNLLDKGEKIAQEATVLKDELTASLEEVRKESEALKVSAERFTDDPCFLPKREAVVQAARALLAAVTRLLILADMIDVMCLLQHVSAFQRTFETLKNVANKSDLQKTYQKLGKELENLDYLAFKRQQDLKSPNQRDEIAGARASLKENSPLLHSICSACLEHSDVASLKASKDTVCEEIQNALNVISNASQGIQNMTTPPEPQAATLGSALDELENLIVLNPLTVTEEEIRPSLEKRLEAIISGAALLADSSCTRDLHRERIIAECNAIRQALQDLLSEYMNNAGKKERSNTLNIALDNMCKKTRDLRRQLRKAIIDHVSDSFLDTTVPLLVLIEAAKNGREKEIKEYAAIFHEHTSRLVEVANLACSMSTNEDGIKIVKIAANHLETLCPQIINAALALAARPKSQAVKNTMEMYKRTWENHIHVLTEAVDDITSIDDFLAVSESHILEDVNKCIIALRDQDADNLDRAAGAIRGRAARVAHIVTGEMDSYEPGAYTEGVMRNVNFLTSTVIPEFVTQVNVALEALSKSSLNVLDDNQFVDISKKIYDTIHDIRCSVMMIRTPEELEDVSDLEEEHEVRSHTSIQTEGKTDRAKMTQLPEAEKEKIAEQVADFKKVKSKLDAEIEIWDDTSNDIIVLAKNMCMIMMEMTDFTRGKGPLKHTTDVIYAAKMISESGSRMDVLARQIANQCPDPSCKQDLLAYLEQIKFYSHQLKICSQVKAEIQNLGGELIMSALDSVTSLIQAAKNLMNAVVQTVKMSYIASTKIIRIQSPAGPRHPVVMWRMKAPAKKPLIKREKPEETCAAVRRGSAKKKIHPLQVMSEFRGRQIY
In the case of B2, the binding entry in experiment [3] and in experiment [4] was “binds” throughout.
